Measured values from patent US20120021468A1, “PRODUCTION OF L-RIBOSE AND OTHER RARE SUGARS” (ZUCHEM, INC., priority 2008, published 2012).
At least one read-out could not be matched to a standard name with certainty.

Test: MDH thermal stability: incubation at 43° C. followed by kinetic assay
Assay type: physicochemical

B1: MDH: NAD-dependent mannitol-1-dehydrogenase from Apium graveolens, SEQ ID NO:2, wild type, expressed in E. coli (protein)
chain: MAKSSEIEHPVKAFGWAARDTTGLLSPFKFSRRATGEKDVRLKVLFSGVCHSDHHMIHNNWGFTTYPIVPGHEIVGVVTEVGSKVEKVKVGDNVGIGCLVGSCRSCESCCDNRESHCENIIDTYGSIYFDGTMTHGGYSDTMVADEHFILRWPKNLPLDSGAPLLCAGITTYSPLKYYGLDKPGTKIGVVGLGGLGHVAVKMAKAFGAQVTVIDISESKRKEALEKLGADSFLLNSDQEQMKGARSSLDGIIDTVPVNHPLAPLFDLLKPNGKLVMVGAPEKPFELPVFSLLKGRKLLGGTINGGIKETQEMLDFAAKHNITADVEVIPMDYVNTAMERLVKSDVRYRFVIDIANTMRTEESLGA
Question: With B1 as the molecule, how does the “T1/2, time to 50% thermal inactivation” value read?
Answer: 3.5 ± 0.7 min
